Experimental data published in patent US20190012428A1.
No constants are given. Whether binding was seen depends on the method and setting. Some results given as binding are weak or reduced against the parent protein; the word gives no strength.

Columns and labels:
DHR76 [1] = assay: analytical gel filtration with multi-angle light scattering, homodimer
DHR76 [2] = assay: crystal structure and SAXS fitting, homodimer
DHR76 [3] = assay: SAXS, fitted with the dimer seen in the crystal structure
DHR76 [4] = assay: SEC-MALS, self-association (homodimer)
DHR49 [5] = assay: analytical gel filtration with multi-angle light scattering, homodimer
DHR49 [6] = assay: crystal structure and SAXS fitting, homodimer
DHR49 [7] = assay: SAXS, fitted with the dimer seen in the crystal structure
DHR49 [8] = assay: SEC-MALS, self-association (homodimer)

Measured: binding

B1: DHR76 (protein)
chain: MNPELEEWIRRAKEVAKEVEKVAQRAEEEGNPDLRDSAKELRRAVEEAIEEAKKQGNPELVEWVARAAKVAAEVIKVAIQAEKEGNRDLFRAALELVRAVIEAIEEAVKQGNPELVEWVARAAKVAAEVIKVAIQAEKEGNRDLFRAALELVRAVIEAIEEAVKQGNPELVERVARLAKKAAELIKRAIRAEKEGNRDERREALERVREVIERIEELVRQGGWLEHHHHHH
binds: DHR76 [1] | DHR76 [2] | DHR76 [3] | DHR76 [4]

B2: DHR49 (protein)
chain: MDSEEEQERIRRILKEARKSGTEESLRQAIEDVAQLAKKSQDSEVLEEAIRVILRIAKESGSEEALRQAIRAVAEIAKEAQDSEVLEEAIRVILRIAKESGSEEALRQAIRAVAEIAKEAQDPRVLEEAIRVIRQIAEESGSEEARRQAERAEEEIRRRAQGWLEHHHHHH
binds: DHR49 [5] | DHR49 [6] | DHR49 [7] | DHR49 [8]
